One experiment concerns the target T1, TBLR1-mCherry wild type (UniProt Q9BZK7).
T1 sequence: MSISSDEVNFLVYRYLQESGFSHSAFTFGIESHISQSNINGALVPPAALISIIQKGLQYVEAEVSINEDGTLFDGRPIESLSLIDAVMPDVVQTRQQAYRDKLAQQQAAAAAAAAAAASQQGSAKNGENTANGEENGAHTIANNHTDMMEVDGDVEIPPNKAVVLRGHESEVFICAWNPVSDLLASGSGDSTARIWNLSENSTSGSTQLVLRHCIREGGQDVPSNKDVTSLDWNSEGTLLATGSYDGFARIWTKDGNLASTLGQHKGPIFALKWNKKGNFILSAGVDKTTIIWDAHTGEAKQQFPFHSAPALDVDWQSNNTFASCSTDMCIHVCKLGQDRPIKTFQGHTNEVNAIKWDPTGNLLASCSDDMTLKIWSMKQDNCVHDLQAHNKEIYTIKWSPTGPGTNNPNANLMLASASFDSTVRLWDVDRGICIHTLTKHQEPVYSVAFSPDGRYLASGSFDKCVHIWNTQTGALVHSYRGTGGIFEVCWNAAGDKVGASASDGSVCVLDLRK
The experiment is described as follows: affinity purification with mass spectrometry; IP (RFP trap) of wild-type, G70D or D370N TBLR1-mCherry transfected into TBLR1-null Flp-In T-REx 293 cells; extracts in NE10, benzonase, 150 mM NaCl; n = 3 transfections.

Protein sequences, listed by entry. Tags and fused reporters are not part of them.
UniProt Q60974: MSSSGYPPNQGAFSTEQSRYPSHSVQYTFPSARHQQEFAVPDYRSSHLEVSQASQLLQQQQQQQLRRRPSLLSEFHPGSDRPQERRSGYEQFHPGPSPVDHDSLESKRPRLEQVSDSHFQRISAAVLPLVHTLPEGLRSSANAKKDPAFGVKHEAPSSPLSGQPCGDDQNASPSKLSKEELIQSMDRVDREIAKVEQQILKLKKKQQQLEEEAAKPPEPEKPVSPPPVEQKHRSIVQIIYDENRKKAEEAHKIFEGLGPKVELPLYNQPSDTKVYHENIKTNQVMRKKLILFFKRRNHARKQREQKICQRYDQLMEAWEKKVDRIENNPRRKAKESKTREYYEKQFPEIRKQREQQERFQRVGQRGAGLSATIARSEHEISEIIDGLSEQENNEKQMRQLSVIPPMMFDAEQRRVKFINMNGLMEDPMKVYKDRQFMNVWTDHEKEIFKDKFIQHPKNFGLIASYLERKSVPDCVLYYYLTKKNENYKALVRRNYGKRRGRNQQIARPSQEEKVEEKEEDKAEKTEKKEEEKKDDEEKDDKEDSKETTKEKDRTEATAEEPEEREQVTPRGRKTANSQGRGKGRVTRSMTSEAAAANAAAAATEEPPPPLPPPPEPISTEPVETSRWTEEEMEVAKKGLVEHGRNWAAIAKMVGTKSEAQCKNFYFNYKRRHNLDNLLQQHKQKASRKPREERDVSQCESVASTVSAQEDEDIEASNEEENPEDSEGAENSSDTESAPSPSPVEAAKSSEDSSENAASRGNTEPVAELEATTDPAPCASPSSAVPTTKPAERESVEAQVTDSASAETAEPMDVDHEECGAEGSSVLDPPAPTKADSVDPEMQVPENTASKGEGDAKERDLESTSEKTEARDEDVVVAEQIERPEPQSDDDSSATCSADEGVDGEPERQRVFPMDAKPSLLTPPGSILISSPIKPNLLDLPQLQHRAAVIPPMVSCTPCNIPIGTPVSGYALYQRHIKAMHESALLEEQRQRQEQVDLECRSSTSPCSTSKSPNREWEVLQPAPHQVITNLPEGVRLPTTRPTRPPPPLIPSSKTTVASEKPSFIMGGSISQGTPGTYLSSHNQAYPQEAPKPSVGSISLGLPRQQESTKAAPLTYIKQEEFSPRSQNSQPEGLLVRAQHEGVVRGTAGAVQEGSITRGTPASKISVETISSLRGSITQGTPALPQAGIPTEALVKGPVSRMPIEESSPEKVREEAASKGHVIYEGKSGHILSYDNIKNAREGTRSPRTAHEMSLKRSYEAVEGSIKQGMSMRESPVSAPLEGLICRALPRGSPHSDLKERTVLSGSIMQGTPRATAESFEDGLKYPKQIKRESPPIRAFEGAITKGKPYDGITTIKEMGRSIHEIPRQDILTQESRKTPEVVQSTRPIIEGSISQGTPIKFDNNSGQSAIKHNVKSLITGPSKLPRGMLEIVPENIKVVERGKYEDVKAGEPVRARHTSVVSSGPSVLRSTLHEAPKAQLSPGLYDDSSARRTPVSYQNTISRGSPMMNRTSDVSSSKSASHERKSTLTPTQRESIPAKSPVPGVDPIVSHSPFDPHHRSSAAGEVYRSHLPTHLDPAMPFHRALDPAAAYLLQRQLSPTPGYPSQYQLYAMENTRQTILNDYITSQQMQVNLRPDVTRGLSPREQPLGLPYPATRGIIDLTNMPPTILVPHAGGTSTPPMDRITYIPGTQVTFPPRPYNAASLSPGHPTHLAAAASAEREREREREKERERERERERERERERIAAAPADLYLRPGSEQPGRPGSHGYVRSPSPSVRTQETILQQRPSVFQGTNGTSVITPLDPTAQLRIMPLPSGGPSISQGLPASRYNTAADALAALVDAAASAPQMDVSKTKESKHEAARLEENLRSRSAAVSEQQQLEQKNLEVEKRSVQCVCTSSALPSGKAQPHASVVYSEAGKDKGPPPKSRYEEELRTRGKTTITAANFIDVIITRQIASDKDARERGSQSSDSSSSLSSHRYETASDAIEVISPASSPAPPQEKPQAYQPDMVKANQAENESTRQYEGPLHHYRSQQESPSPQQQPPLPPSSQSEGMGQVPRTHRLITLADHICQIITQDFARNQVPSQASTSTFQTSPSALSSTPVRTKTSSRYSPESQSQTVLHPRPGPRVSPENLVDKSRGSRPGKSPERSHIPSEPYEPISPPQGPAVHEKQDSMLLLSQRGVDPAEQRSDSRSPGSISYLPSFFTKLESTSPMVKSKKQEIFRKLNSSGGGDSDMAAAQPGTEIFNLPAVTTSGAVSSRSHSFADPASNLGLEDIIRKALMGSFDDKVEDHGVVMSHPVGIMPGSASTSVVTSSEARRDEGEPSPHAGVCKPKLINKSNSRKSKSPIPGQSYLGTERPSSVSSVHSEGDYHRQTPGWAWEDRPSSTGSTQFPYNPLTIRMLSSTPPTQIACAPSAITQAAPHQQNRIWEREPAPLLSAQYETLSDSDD
UniProt Q6UB99: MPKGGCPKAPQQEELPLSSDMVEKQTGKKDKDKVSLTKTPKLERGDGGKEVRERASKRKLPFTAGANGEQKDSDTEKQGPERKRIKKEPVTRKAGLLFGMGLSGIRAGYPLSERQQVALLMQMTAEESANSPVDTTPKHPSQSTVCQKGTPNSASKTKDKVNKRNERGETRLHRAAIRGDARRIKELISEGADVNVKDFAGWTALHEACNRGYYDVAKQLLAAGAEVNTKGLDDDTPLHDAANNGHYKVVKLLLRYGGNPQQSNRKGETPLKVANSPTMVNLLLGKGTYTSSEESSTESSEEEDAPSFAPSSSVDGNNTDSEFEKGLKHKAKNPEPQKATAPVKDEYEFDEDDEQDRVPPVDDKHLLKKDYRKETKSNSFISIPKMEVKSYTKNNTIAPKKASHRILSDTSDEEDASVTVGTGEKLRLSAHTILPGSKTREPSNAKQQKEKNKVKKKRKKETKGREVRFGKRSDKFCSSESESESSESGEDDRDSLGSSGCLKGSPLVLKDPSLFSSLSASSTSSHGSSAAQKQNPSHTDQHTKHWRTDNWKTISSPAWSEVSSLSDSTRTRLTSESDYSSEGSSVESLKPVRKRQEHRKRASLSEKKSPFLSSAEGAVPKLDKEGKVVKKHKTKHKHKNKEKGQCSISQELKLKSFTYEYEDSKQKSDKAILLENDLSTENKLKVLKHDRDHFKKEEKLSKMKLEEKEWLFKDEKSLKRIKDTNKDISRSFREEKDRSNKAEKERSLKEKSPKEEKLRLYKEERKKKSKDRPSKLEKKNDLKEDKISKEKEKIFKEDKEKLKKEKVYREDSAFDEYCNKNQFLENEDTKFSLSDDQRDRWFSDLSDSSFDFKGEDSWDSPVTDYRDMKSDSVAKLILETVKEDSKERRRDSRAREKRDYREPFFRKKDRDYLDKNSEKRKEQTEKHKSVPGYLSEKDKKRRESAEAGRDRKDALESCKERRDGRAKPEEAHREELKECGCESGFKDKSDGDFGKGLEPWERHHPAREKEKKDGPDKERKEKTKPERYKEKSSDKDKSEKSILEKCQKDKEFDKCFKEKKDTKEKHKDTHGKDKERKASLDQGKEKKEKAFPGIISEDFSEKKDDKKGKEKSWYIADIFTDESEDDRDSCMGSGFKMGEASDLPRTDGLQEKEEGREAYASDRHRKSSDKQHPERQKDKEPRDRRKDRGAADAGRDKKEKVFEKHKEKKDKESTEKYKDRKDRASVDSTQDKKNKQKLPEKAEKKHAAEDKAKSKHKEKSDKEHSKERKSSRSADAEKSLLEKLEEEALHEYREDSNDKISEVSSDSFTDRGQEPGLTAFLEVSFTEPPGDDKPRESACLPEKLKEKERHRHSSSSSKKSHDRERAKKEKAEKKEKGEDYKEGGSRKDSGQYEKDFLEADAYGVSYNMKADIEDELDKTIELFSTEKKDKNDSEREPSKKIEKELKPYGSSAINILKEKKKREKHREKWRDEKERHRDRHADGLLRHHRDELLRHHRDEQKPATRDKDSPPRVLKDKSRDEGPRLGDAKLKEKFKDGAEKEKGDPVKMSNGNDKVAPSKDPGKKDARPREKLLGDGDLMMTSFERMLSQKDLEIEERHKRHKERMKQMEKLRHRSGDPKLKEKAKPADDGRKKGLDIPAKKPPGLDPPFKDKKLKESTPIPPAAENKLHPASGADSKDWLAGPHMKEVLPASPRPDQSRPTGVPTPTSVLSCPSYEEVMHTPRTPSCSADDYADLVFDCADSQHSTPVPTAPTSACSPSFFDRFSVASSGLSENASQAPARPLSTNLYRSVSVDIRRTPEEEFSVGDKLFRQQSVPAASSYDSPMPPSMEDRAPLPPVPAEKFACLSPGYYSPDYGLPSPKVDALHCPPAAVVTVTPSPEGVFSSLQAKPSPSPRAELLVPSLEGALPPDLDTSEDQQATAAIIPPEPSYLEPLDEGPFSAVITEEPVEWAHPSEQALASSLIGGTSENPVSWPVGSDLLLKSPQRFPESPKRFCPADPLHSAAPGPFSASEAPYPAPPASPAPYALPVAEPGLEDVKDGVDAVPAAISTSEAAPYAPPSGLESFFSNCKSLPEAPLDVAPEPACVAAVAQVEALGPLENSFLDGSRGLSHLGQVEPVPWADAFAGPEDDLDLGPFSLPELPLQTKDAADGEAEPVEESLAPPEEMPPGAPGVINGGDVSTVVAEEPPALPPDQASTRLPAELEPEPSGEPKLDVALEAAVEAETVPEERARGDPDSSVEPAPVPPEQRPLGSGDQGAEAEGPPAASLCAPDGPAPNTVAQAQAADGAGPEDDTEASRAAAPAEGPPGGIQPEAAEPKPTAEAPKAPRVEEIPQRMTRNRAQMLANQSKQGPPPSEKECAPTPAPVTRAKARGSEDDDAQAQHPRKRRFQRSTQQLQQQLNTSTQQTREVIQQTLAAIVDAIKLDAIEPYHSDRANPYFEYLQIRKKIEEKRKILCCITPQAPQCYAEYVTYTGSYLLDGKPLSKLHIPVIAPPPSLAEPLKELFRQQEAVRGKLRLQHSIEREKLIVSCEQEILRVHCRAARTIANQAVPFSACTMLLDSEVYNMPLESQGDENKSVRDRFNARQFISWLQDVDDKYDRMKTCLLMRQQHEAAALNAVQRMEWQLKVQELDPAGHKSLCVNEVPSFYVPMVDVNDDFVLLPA

Experiment [1] addresses endogenous mouse NCOR1 (brain) (mouse (endogenous in brain)) (UniProt Q60974). The experiment is described as follows: affinity purification with mass spectrometry; IP with anti-NCOR1 cross-linked to protein G Dynabeads from brain nuclear extracts of Setd5^+/+ or Setd5^W834C/W834C male mice; n = 3 per genotype.
A further experiment addresses T2, TBLR1-mCherry D370N (UniProt Q9BZK7).
T2 sequence: T1 sequence with D370N
The experiment is described as follows: affinity purification with mass spectrometry; IP (RFP trap) of wild-type, G70D or D370N TBLR1-mCherry transfected into TBLR1-null Flp-In T-REx 293 cells; extracts in NE10, benzonase, 150 mM NaCl; n = 3 transfections.

Positions count from the first letter of the chain named. Names and notes keep the numbering of the source. Results are given in words; binding and its absence hold for the method and conditions named. Binding seen in cells or lysates may run through a third protein. A yes stands for co-enrichment or nearness to the bait. Other partners may have been found. For some of these results: A no says only that the protein was not detected with the bait.

Consider “endogenous ANKRD11 of Flp-In T-REx 293 cells (from UniProt Q6UB99 1-2663)”, for which the binding entry in the experiment with TBLR1-mCherry wild type was “binds”.

B1: endogenous mouse SETD5 W834C (knock-in) (protein, UniProt Q5XJV7 1-1441)
chain: MSIAIPLGVTTPDTSYSDMAAGSDPESVEASPAVNEKSVYSTHNYGTTQRHGCRGLPYATIIPRSDLNGLPSPVEERCGDSPNSEGETVPTWCPCGLSQDGFLLNCDKCRGMSRGKVIRLHRRKQDNISGGDSSATESWDEELSPSTVLYTATQHTPTSITLTVRRTKPKKRKKSPEKGRAAPKTKKIKNSPSEAQNLDENTTEGWENRIRLWTDQYEEAFTNQYSADVQNALEQHLHSNKEFVGKPAILDTINKTELACNNTVIGSQMQLQLGRVTRVQKHRKILRAARDLALDTLIIEYRGKVMLRQQFEVNGHFFKKPYPFVLFYSKFNGVEMCVDARTFGNDARFIRRSCTPNAEVRHMIADGMIHLCIYAVSAITKDAEVTIAFDYEYSNCNYKVDCACHKGNRNCPIQKRNPNAAELPLPPPPSFPTIGAETRRRKARRKELELEQQNEVPEENPDPQPQEVPEKVTVSNEHEEVDNPEEKPEEEEKEEATDDQENSAHSRRTREDRKVEAIMHAFESLEKRKKRRDQPVEQSSSDIEITTSSSEIVVGEETKTAAPESEVSSPVSNVAIPSTPQSTGVNTRRSSHAGDVAAEKPIPKPPPAKPSRPRPKSRISRYRTSSAQRLKRQKQAIAQQAELSQAALEEGGSNNSVTPPEAGNTDSSGENRQLTGSDPTVISVTGSHVNRAASKYPKTKKYLVTEWLNDKAEKQECPVECPLRITTDPTVLATTLNMLPGLIHSPLICTTPKHYIRFGSPFMPERRRRPLLPDGTFSSCKKRWIKQALEEGMTQTSSVPQETRTQHLYQSNETSNSSSICKDNADLLSPLKKCKSRYLMEQNITKLLQPLSPVTPPPPSSGSKSPQLTTPGQTHPGEEECRNGYSLMFSPITSLTTASRSNTPLQFELCHRKDLDLTKVGFPDSSTHSCADRPSLLNCNHPDLASHPSVVPTSEAGFPSRSGDGPQTLLRNSDQAFRTEFNLMYAYSPLNAMPRADGLYRGSPLVGDRKPLHLDGGYCSPAEGFSSRYEHGFMKDLSRGSMSPGGERTCEGVPSAPQNPPQRKKVSLLEYRKRKQEAKENSGGGNDSSQSKSKSSGAGQGSSNSVSDTGAHGVQGSSAGTPSSPHKKFSPSHSSASHLEAVSPSDSRGTSSSHCRPQENISSRWMVPTSVERLREGGSIPKVLRSSVRVAQKGEPSPTWESNITEKESDPADGEGPEPLSSALSKGATVYSPSRYSYQLLQCDSPRTESQSLLQQSSSPFRGHPTQSPGYSYRTTALRPGNPPSHGSSESSLSSTSYPSPAHPVSTDSLAPFTGTPGYYSSQPHSGNSTGSNLPRRSCSSSAASPTPQGPSDSPTSDSVSQSSTGTLSSTSFPQNSRSSLPSDLRTISLPNAGQSAAYQASRVSAVSNSQHYPHRGSGGVHQYRLQPLQGSGVKTQTGLS
Turning to B1, in experiment [1], the binding result was “no binding”.

B2: endogenous SETD5 of Flp-In T-REx 293 and HEK293T cells (protein, UniProt Q9C0A6 1-1442)
chain: MSIAIPLGVTTSDTSYSDMAAGSDPESVEASPAVNEKSVYSTHNYGTTQRHGCRGLPYATIIPRSDLNGLPSPVEERCGDSPNSEGETVPTWCPCGLSQDGFLLNCDKCRGMSRGKVIRLHRRKQDNISGGDSSATESWDEELSPSTVLYTATQHTPTSITLTVRRTKPKKRKKSPEKGRAAPKTKKIKNSPSEAQNLDENTTEGWENRIRLWTDQYEEAFTNQYSADVQNALEQHLHSSKEFVGKPTILDTINKTELACNNTVIGSQMQLQLGRVTRVQKHRKILRAARDLALDTLIIEYRGKVMLRQQFEVNGHFFKKPYPFVLFYSKFNGVEMCVDARTFGNDARFIRRSCTPNAEVRHMIADGMIHLCIYAVSAITKDAEVTIAFDYEYSNCNYKVDCACHKGNRNCPIQKRNPNATELPLLPPPPSLPTIGAETRRRKARRKELEMEQQNEASEENNDQQSQEVPEKVTVSSDHEEVDNPEEKPEEEKEEVIDDQENLAHSRRTREDRKVEAIMHAFENLEKRKKRRDQPLEQSNSDVEITTTTSETPVGEETKTEAPESEVSNSVSNVTIPSTPQSVGVNTRRSSQAGDIAAEKLVPKPPPAKPSRPRPKSRISRYRTSSAQRLKRQKQANAQQAELSQAALEEGGSNSLVTPTEAGSLDSSGENRPLTGSDPTVVSITGSHVNRAASKYPKTKKYLVTEWLNDKAEKQECPVECPLRITTDPTVLATTLNMLPGLIHSPLICTTPKHYIRFGSPFIPERRRRPLLPDGTFSSCKKRWIKQALEEGMTQTSSVPQETRTQHLYQSNENSSSSSICKDNADLLSPLKKWKSRYLMEQNVTKLLRPLSPVTPPPPNSGSKSPQLATPGSSHPGEEECRNGYSLMFSPVTSLTTASRCNTPLQFELCHRKDLDLAKVGYLDSNTNSCADRPSLLNSGHSDLAPHPSLGPTSETGFPSRSGDGHQTLVRNSDQAFRTEFNLMYAYSPLNAMPRADGLYRGSPLVGDRKPLHLDGGYCSPAEGFSSRYEHGLMKDLSRGSLSPGGERACEGVPSAPQNPPQRKKVSLLEYRKRKQEAKENSAGGGGDSAQSKSKSAGAGQGSSNSVSDTGAHGVQGSSARTPSSPHKKFSPSHSSMSHLEAVSPSDSRGTSSSHCRPQENISSRWMVPTSVERLREGGSIPKVLRSSVRVAQKGEPSPTWESNITEKDSDPADGEGPETLSSALSKGATVYSPSRYSYQLLQCDSPRTESQSLLQQSSSPFRGHPTQSPGYSYRTTALRPGNPPSHGSSESSLSSTSYSSPAHPVSTDSLAPFTGTPGYFSSQPHSGNSTGSNLPRRSCPSSAASPTLQGPSDSPTSDSVSQSSTGTLSSTSFPQNSRSSLPSDLRTISLPSAGQSAVYQASRVSAVSNSQHYPHRGSGGVHQYRLQPLQGSGVKTQTGLS
Regarding B2, the binding entry with TBLR1-mCherry wild type and with TBLR1-mCherry D370N was “binds” each time.

The values above are taken from paper PMC13385800 (2026).
